According to the supplement of paper PMC7661543:
± gives the standard deviation of the averaged measurements. The effect of the compound repeats well; differences between the knockouts mostly do not.

System: BT-20
Assay: relative cell number vs DMSO control (72 h) (% of DMSO); higher = less growth inhibition (more cells)
Procedure: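 QMAP-Seq: a pool of 5 breast cancer cell lines (ZR-75-1, SKBR3, HCC-38, MDA-MB-231, BT-20), each carrying 12 doxycycline-inducible Cas9 sgRNA perturbations (11 knockouts plus non-targeting sgNT), was treated with compounds for 72 h at four 10-fold doses (10 nM-10 uM or 1 nM-1 uM range). Barcodes were amplified and sequenced, and cell number was interpolated from 293T spike-in standard curves. The result is expressed as % of the median of DMSO wells. Two biological replicates.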

CN(C)/N=N/c1[nH]cnc1C(N)=O [Dacarbazine]
Details	relative cell number
sgRNA knockout: sgATF3, 10 nM	97.2 ± 1.6
sgRNA knockout: sgATF3, 100 nM	98 ± 0.66
sgRNA knockout: sgATF3, 1000 nM	96.7 ± 6.1
sgRNA knockout: sgATF3, 10000 nM	95.1 ± 26
sgRNA knockout: sgATF4, 10 nM	106 ± 7.7
sgRNA knockout: sgATF4, 100 nM	91.5 ± 11
sgRNA knockout: sgATF4, 1000 nM	99 ± 12
sgRNA knockout: sgATF4, 10000 nM	120 ± 42
sgRNA knockout: sgATF6, 10 nM	85.97 ± 0.35
sgRNA knockout: sgATF6, 100 nM	90 ± 12
sgRNA knockout: sgATF6, 1000 nM	97.1 ± 32
sgRNA knockout: sgATF6, 10000 nM	106 ± 36
sgRNA knockout: sgATG7, 10 nM	99.5 ± 9.5
sgRNA knockout: sgATG7, 100 nM	114 ± 0.66
sgRNA knockout: sgATG7, 1000 nM	95.957 ± 0.058
sgRNA knockout: sgATG7, 10000 nM	94.7 ± 24
sgRNA knockout: sgERN1, 10 nM	94.4 ± 3.5
sgRNA knockout: sgERN1, 100 nM	93.2 ± 9.2
sgRNA knockout: sgERN1, 1000 nM	112 ± 4
sgRNA knockout: sgERN1, 10000 nM	102 ± 32
sgRNA knockout: sgHSF1, 10 nM	93.8 ± 23
sgRNA knockout: sgHSF1, 100 nM	97.1 ± 4.4
sgRNA knockout: sgHSF1, 1000 nM	99.5 ± 13
sgRNA knockout: sgHSF1, 10000 nM	105 ± 26
sgRNA knockout: sgHSF2, 10 nM	86.3 ± 16
sgRNA knockout: sgHSF2, 100 nM	90.61 ± 0.21
sgRNA knockout: sgHSF2, 1000 nM	93.3 ± 1.5
sgRNA knockout: sgHSF2, 10000 nM	73.7 ± 3.6
sgRNA knockout: sgKEAP1, 10 nM	116 ± 6.3
sgRNA knockout: sgKEAP1, 100 nM	91.9 ± 3.1
sgRNA knockout: sgKEAP1, 1000 nM	102 ± 3.7
sgRNA knockout: sgKEAP1, 10000 nM	98.5 ± 26
sgRNA knockout: sgNFE2L2, 10 nM	98.3 ± 18
sgRNA knockout: sgNFE2L2, 100 nM	114 ± 2.8
sgRNA knockout: sgNFE2L2, 1000 nM	101 ± 31
sgRNA knockout: sgNFE2L2, 10000 nM	90.8 ± 27
sgRNA knockout: sgSLC35F2, 10 nM	76.9 ± 15
sgRNA knockout: sgSLC35F2, 100 nM	88.9 ± 13
sgRNA knockout: sgSLC35F2, 1000 nM	104 ± 11
sgRNA knockout: sgSLC35F2, 10000 nM	107 ± 17
sgRNA knockout: sgXBP1, 10 nM	104 ± 15
sgRNA knockout: sgXBP1, 100 nM	90.4 ± 3.3
sgRNA knockout: sgXBP1, 1000 nM	109 ± 16
sgRNA knockout: sgXBP1, 10000 nM	96.5 ± 43

Cc1nc(Nc2ncc(C(=O)Nc3c(C)cccc3Cl)s2)cc(N2CCN(CCO)CC2)n1 [Dasatinib]
Details	relative cell number
sgRNA knockout: sgATF3, 10 nM	101 ± 23
sgRNA knockout: sgATF3, 100 nM	70.2 ± 13
sgRNA knockout: sgATF3, 1000 nM	93 ± 7.5
sgRNA knockout: sgATF3, 10000 nM	64.4 ± 10
sgRNA knockout: sgATF4, 10 nM	87.9 ± 7.3
sgRNA knockout: sgATF4, 100 nM	83 ± 11
sgRNA knockout: sgATF4, 1000 nM	93.7 ± 4.5
sgRNA knockout: sgATF4, 10000 nM	79.8 ± 10
sgRNA knockout: sgATF6, 10 nM	100 ± 27
sgRNA knockout: sgATF6, 100 nM	79.4 ± 2
sgRNA knockout: sgATF6, 1000 nM	95.7 ± 11
sgRNA knockout: sgATF6, 10000 nM	63.6 ± 16
sgRNA knockout: sgATG7, 10 nM	90.3 ± 5.3
sgRNA knockout: sgATG7, 100 nM	83.717 ± 0.083
sgRNA knockout: sgATG7, 1000 nM	87.3 ± 9.3
sgRNA knockout: sgATG7, 10000 nM	65.9 ± 3.5
sgRNA knockout: sgERN1, 10 nM	103 ± 14
sgRNA knockout: sgERN1, 100 nM	76.2 ± 22
sgRNA knockout: sgERN1, 1000 nM	91.7 ± 13
sgRNA knockout: sgERN1, 10000 nM	63.4 ± 10
sgRNA knockout: sgHSF1, 10 nM	85.3 ± 3.8
sgRNA knockout: sgHSF1, 100 nM	76.3 ± 19
sgRNA knockout: sgHSF1, 1000 nM	96.8 ± 6.2
sgRNA knockout: sgHSF1, 10000 nM	63.2 ± 18
sgRNA knockout: sgHSF2, 10 nM	96 ± 15
sgRNA knockout: sgHSF2, 100 nM	85.6 ± 22
sgRNA knockout: sgHSF2, 1000 nM	80.5 ± 4.5
sgRNA knockout: sgHSF2, 10000 nM	65.3 ± 0.66
sgRNA knockout: sgKEAP1, 10 nM	88.3 ± 9.5
sgRNA knockout: sgKEAP1, 100 nM	79.3 ± 3.9
sgRNA knockout: sgKEAP1, 1000 nM	91.5 ± 2.4
sgRNA knockout: sgKEAP1, 10000 nM	63.9 ± 12
sgRNA knockout: sgNFE2L2, 10 nM	84.3 ± 0.89
sgRNA knockout: sgNFE2L2, 100 nM	73.6 ± 14
sgRNA knockout: sgNFE2L2, 1000 nM	107 ± 2.1
sgRNA knockout: sgNFE2L2, 10000 nM	63.8 ± 20
sgRNA knockout: sgSLC35F2, 10 nM	108 ± 3.7
sgRNA knockout: sgSLC35F2, 100 nM	99.9 ± 10
sgRNA knockout: sgSLC35F2, 1000 nM	93 ± 2.5
sgRNA knockout: sgSLC35F2, 10000 nM	64.3 ± 8.1
sgRNA knockout: sgXBP1, 10 nM	94.1 ± 2.5
sgRNA knockout: sgXBP1, 100 nM	80.3 ± 8.2
sgRNA knockout: sgXBP1, 1000 nM	88.4 ± 8.4
sgRNA knockout: sgXBP1, 10000 nM	64.7 ± 6.7
